The target in assay [1] is stimulator of interferon genes (STING), endogenous in primary human monocyte-derived macrophages (human (endogenous in primary MDMs)) (UniProt Q86WV6). Kind of assay: co-IP; STING-IP protocol on cell lysates of primary human MDMs, immunoblot. A general note: In western blotting, separated proteins are transferred to a membrane and probed.
Assay [2] concerns the target interferon-gamma inducible factor 16 (IFI16), endogenous in THP-1 cells (human (endogenous in THP-1)) (UniProt Q16666). Description: co-IP; IFI16-IP: cleared cytosolic lysates of control and STING KO PMA-differentiated THP-1 cells, unstimulated or transfected with dsDNA (4 ug/ml) for 2 h (and 4 h); 6 ug anti-IFI16 overnight at 4 C, protein G Dynabeads, immunoblot.

Chains of the proteins cited; added tags and fusions are not shown.
UniProt Q86WV6: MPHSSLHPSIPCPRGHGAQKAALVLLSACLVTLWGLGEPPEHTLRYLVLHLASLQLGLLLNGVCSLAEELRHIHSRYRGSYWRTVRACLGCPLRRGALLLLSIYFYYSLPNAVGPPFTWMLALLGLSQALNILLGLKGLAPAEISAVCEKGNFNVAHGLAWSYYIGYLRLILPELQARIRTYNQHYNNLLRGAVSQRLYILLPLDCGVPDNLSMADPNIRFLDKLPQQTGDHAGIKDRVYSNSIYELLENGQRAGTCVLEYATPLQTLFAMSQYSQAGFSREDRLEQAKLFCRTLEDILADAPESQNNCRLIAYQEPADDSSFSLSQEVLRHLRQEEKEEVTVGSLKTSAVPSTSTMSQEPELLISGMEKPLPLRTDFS
UniProt Q16666: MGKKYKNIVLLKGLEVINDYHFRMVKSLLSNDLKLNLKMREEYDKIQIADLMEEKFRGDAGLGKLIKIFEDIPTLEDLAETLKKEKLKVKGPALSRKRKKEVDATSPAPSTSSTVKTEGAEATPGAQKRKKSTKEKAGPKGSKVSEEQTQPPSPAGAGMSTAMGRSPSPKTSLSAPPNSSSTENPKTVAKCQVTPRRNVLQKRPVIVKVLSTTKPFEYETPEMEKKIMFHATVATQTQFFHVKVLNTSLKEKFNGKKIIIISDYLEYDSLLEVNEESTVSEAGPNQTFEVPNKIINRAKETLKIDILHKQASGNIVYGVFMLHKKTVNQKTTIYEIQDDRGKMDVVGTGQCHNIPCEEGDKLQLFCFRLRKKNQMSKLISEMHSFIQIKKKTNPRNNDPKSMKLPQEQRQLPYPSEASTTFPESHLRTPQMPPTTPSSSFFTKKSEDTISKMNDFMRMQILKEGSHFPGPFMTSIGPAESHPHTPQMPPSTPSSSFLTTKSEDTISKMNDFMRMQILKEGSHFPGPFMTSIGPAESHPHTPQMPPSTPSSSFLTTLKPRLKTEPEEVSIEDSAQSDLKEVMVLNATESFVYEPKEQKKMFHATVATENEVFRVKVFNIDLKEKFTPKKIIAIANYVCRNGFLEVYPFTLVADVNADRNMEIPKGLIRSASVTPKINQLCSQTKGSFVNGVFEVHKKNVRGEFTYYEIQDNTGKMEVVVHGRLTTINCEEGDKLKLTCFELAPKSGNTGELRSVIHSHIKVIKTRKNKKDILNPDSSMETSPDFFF

No constants are given. Whether binding was seen depends on the method and setting. Binding seen in cells or lysates may run through a third protein. Some binding calls cover weakened binding; strength is not graded here.

In the case of “interferon-gamma inducible factor 16 (IFI16), endogenous in primary human monocyte-derived macrophages (from UniProt Q16666 1-785)”, the binding entry in assay [1] is recorded as “binds”.

B1: TANK-binding kinase 1 (TBK1), endogenous in THP-1 cells (protein, UniProt Q9UHD2 1-729)
chain: MQSTSNHLWLLSDILGQGATANVFRGRHKKTGDLFAIKVFNNISFLRPVDVQMREFEVLKKLNHKNIVKLFAIEEETTTRHKVLIMEFCPCGSLYTVLEEPSNAYGLPESEFLIVLRDVVGGMNHLRENGIVHRDIKPGNIMRVIGEDGQSVYKLTDFGAARELEDDEQFVSLYGTEEYLHPDMYERAVLRKDHQKKYGATVDLWSIGVTFYHAATGSLPFRPFEGPRRNKEVMYKIITGKPSGAISGVQKAENGPIDWSGDMPVSCSLSRGLQVLLTPVLANILEADQEKCWGFDQFFAETSDILHRMVIHVFSLQQMTAHKIYIHSYNTATIFHELVYKQTKIISSNQELIYEGRRLVLEPGRLAQHFPKTTEENPIFVVSREPLNTIGLIYEKISLPKVHPRYDLDGDASMAKAITGVVCYACRIASTLLLYQELMRKGIRWLIELIKDDYNETVHKKTEVVITLDFCIRNIEKTVKVYEKLMKINLEAAELGEISDIHTKLLRLSSSQGTIETSLQDIDSRLSPGGSLADAWAHQEGTHPKDRNVEKLQVLLNCMTEIYYQFKKDKAERRLAYNEEQIHKFDKQKLYYHATKAMTHFTDECVKKYEAFLNKSEEWIRKMLHLRKQLLSLTNQCFDIEEEVSKYQEYTNELQETLPQKMFTASSGIKHTMTPIYPSSNTLVEMTLGMKKLKEEMEGVVKELAENNHILERFGSLTMDGGLRNVDCL
For B1, the binding result in assay [2] is given as “binds”.

B2: phosphorylated TANK-binding kinase 1 (phospho-TBK1), endogenous in THP-1 cells (protein, UniProt Q9UHD2 1-729)
chain: MQSTSNHLWLLSDILGQGATANVFRGRHKKTGDLFAIKVFNNISFLRPVDVQMREFEVLKKLNHKNIVKLFAIEEETTTRHKVLIMEFCPCGSLYTVLEEPSNAYGLPESEFLIVLRDVVGGMNHLRENGIVHRDIKPGNIMRVIGEDGQSVYKLTDFGAARELEDDEQFVSLYGTEEYLHPDMYERAVLRKDHQKKYGATVDLWSIGVTFYHAATGSLPFRPFEGPRRNKEVMYKIITGKPSGAISGVQKAENGPIDWSGDMPVSCSLSRGLQVLLTPVLANILEADQEKCWGFDQFFAETSDILHRMVIHVFSLQQMTAHKIYIHSYNTATIFHELVYKQTKIISSNQELIYEGRRLVLEPGRLAQHFPKTTEENPIFVVSREPLNTIGLIYEKISLPKVHPRYDLDGDASMAKAITGVVCYACRIASTLLLYQELMRKGIRWLIELIKDDYNETVHKKTEVVITLDFCIRNIEKTVKVYEKLMKINLEAAELGEISDIHTKLLRLSSSQGTIETSLQDIDSRLSPGGSLADAWAHQEGTHPKDRNVEKLQVLLNCMTEIYYQFKKDKAERRLAYNEEQIHKFDKQKLYYHATKAMTHFTDECVKKYEAFLNKSEEWIRKMLHLRKQLLSLTNQCFDIEEEVSKYQEYTNELQETLPQKMFTASSGIKHTMTPIYPSSNTLVEMTLGMKKLKEEMEGVVKELAENNHILERFGSLTMDGGLRNVDCL
modifications: phosphorylated (detected with anti-phospho-TBK1; site not given)
Take B2: the binding entry in assay [2] is “binds”.
